The text below walks through data of paper PMC7862700.

Amino acid sequences for entries named in this document (tags omitted). A change or cut given only in a name is not applied to a line headed by its entry.
UniProt P32519: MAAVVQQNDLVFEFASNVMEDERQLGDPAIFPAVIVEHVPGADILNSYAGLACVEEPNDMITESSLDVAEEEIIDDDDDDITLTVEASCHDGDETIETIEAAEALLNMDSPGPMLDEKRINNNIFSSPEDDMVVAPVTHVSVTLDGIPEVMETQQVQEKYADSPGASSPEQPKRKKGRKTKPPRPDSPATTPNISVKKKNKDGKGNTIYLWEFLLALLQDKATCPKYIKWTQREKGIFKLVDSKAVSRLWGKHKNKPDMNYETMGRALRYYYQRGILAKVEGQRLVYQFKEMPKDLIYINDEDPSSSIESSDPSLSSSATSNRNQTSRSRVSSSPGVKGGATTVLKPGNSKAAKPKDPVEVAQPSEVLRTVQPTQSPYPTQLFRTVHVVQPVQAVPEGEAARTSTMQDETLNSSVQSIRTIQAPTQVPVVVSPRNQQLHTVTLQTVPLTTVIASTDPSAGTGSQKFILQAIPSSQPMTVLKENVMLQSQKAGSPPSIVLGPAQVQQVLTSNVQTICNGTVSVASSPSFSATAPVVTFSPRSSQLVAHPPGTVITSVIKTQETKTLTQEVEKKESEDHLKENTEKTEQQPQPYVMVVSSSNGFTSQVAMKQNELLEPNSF
UniProt P50549: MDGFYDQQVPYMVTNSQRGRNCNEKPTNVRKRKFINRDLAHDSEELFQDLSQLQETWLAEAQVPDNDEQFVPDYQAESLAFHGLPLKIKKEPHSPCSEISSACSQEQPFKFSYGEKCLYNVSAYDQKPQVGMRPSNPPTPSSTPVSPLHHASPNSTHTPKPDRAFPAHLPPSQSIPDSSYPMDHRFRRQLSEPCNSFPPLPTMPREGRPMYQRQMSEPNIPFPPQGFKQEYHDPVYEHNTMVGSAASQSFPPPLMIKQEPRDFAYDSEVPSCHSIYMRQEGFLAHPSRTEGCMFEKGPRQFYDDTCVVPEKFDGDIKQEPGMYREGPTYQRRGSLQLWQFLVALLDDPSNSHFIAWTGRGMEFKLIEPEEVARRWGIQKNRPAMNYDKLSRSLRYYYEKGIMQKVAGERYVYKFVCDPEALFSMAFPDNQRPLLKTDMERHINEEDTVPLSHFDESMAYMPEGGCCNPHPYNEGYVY

The entries are a selection whose mix differs from that of the whole data set. For part of these data: At the low end of the ranking the order means little. Some of the results follow. For part of these data: The source does not settle which construct or isoform was used.

Holding throughout (assay): DAPPL (digital affinity profiling via proximity ligation, sequencing)
Common to all, as to details: 10 mM Tris-HCl pH 7.5, 50 mM NaCl, 1 mM DTT, 4% glycerol, room temperature, 30 min; GST-TFs on glutathione beads, 16-mer random dsDNA library, 0.1% …; high values mean tight binding; double strand, one strand shown; scale: fold enrichment (6-mer frequency, TF over GST control)

The target of one test is T1, ERG (UniProt P11308).
T1 sequence: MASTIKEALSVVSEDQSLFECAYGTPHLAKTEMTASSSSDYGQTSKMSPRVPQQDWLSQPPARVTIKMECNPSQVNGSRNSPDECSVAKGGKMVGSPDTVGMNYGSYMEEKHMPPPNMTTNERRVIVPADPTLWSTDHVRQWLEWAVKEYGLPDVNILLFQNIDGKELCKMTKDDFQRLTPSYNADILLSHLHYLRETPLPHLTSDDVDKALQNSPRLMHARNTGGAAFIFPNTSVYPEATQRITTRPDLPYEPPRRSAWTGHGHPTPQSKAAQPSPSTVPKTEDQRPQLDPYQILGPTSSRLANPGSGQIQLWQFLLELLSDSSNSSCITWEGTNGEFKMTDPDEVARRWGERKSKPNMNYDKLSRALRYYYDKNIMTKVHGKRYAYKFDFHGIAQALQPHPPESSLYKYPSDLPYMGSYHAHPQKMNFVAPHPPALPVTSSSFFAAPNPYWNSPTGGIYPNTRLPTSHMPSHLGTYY

In a further test the target is ELF1 (UniProt P32519).
A further test has as its target T2, ELK4 (UniProt P28324-2).
T2 sequence: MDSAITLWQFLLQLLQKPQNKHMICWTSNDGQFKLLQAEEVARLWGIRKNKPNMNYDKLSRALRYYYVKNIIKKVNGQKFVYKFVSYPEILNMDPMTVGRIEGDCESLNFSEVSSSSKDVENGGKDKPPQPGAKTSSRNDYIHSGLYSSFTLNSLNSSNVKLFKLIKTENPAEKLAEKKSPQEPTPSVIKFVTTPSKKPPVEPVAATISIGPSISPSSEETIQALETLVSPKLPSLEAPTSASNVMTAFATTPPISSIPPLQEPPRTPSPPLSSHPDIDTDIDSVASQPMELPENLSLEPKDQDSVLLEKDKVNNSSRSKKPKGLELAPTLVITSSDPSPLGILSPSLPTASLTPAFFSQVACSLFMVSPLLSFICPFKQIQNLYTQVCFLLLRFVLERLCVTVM

A further test concerns the target T3, ETV4 (UniProt P43268).
T3 sequence: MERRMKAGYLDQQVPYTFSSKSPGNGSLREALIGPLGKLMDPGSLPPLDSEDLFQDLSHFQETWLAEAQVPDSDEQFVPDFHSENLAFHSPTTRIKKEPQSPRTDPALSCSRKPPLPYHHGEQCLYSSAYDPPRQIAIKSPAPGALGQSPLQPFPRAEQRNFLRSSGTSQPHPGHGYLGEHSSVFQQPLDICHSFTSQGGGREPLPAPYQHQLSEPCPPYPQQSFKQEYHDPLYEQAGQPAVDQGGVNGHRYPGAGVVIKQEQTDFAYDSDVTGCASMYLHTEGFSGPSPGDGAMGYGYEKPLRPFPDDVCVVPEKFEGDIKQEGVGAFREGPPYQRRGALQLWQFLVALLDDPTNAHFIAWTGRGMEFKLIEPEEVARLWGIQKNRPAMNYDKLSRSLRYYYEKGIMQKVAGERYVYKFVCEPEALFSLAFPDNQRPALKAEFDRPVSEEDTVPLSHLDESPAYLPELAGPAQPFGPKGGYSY

The target in another test is ETV1 (UniProt P50549).
A further test deals with T4, ERF (UniProt P50548).
T4 sequence: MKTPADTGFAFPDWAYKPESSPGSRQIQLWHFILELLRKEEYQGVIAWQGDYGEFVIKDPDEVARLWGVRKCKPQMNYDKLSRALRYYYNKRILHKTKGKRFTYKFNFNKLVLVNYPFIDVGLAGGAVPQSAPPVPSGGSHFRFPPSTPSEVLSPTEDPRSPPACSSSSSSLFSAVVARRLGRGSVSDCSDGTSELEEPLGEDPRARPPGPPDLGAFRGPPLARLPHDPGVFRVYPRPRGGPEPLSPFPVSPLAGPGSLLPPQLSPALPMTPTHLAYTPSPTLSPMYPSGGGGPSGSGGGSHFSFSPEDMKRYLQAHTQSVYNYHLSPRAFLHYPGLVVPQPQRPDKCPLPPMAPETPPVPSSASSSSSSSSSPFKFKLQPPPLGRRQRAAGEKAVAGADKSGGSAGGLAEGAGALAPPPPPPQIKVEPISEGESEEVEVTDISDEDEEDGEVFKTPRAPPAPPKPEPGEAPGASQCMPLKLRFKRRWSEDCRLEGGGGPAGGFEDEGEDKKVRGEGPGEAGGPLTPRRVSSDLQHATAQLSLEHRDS

Consider ACACAG, for which the binding signal with ERG was 0.948; with ELF1, 1.05; with ELK4, 1.12; with ETV4, 0.929; with ETV1, 0.987; in the test with ERF, 1.04.
Regarding TACGTG, the binding signal came out at 0.637 with ERG; 0.661 in the test with ELF1; 0.717 with ELK4; 0.703 in the test with ETV4; 0.697 with ETV1; 0.75 with ERF.
On to GGAGCT, for which the binding signal is 0.647 with ERG; 0.593 in the test with ELF1; 0.552 with ELK4; 0.594 in the test with ETV4; 0.645 in the test with ETV1; 0.617 with ERF.
As for AGACAA, the binding signal in the test with ERG was 0.804; with ELF1 it was 0.803; in the test with ELK4, 0.85; in the test with ETV4 it was 0.799; with ETV1, 0.772; with ERF, 0.878.
Regarding GTGTAG, the binding signal with ERG is 0.667; in the test with ELF1 it was 0.674; with ELK4, 0.621; with ETV4 it was 0.614; with ETV1 it was 0.654; with ERF, 0.728.
Take GAGGTG: the binding signal was 0.487 with ERG; 0.499 with ELF1; 0.491 in the test with ELK4; 0.467 in the test with ETV4; 0.507 in the test with ETV1; 0.465 in the test with ERF.
As for GATCCG, the binding signal with ELF1 was 0.968; with ELK4, 1; with ETV4, 0.929; in the test with ETV1, 0.896; with ERF, 0.904.
In the case of CAGCAA, the binding signal worked out at 0.947 with ERG; 0.972 with ELF1; 0.973 with ELK4; 0.893 with ETV4; 0.886 with ETV1.
On to CAACGG, for which the binding signal is 0.997 in the test with ERG, 0.987 in the test with ELF1, 1.01 in the test with ELK4 and 0.969 with ETV4.
As for GACGAT, the binding signal in the test with ERG turned out to be 0.922; in the test with ELF1, 0.908; with ELK4, 0.877; with ETV4 it was 0.835; with ETV1 it was 0.958.
In the same order, the values of CAGTTT are 0.922, 0.909, 0.876, 0.832 and 0.869.
For the sequence GGATGA, the binding signal in the test with ELF1 amounted to 0.931; in the test with ELK4 it was 0.832; in the test with ETV4 it was 1.02; with ERF, 0.937.
Take CCTAGT: the binding signal in the test with ERG is 0.884; with ELF1 it was 0.935; with ELK4, 0.973; with ETV4, 0.947.
On to CAGACG, for which the binding signal with ERG came to 0.482; with ELF1 it was 0.476; with ELK4 it was 0.511; with ETV4, 0.462; with ETV1 it was 0.51; in the test with ERF, 0.504.
Turning to GACAAA, the binding signal with ERG worked out at 0.992; with ELF1, 0.978; in the test with ELK4, 0.971; with ETV4, 0.932; in the test with ETV1 it was 0.94.
As to AGCCAG, the binding signal with ERG was found to be 0.504; in the test with ELF1, 0.466; with ELK4, 0.467; with ETV4 it was 0.488; with ETV1 it was 0.458; with ERF it was 0.441.
As for CGCGGT, the binding signal was 0.919 in the test with ERG; 0.885 with ELF1; 0.996 with ELK4; 0.939 with ETV4; 0.89 with ERF.
For the sequence GCAACG, the binding signal in the test with ELF1 was found to be 0.98; with ELK4, 0.979; with ETV4, 1; with ETV1, 0.993.
In the case of CATGTG, the binding signal with ERG stood at 0.801; with ELF1 it was 0.873; in the test with ELK4, 0.905; with ETV4, 0.822; in the test with ETV1, 0.87; with ERF, 0.855.
Consider CGGTAC, for which the binding signal with ERG came to 0.943; with ELF1, 0.976; with ELK4, 0.934; with ETV4, 0.907; with ERF, 0.991.
For GTGGAC, the binding signal with ERG was 0.846; with ELF1, 0.947; with ELK4, 0.924; in the test with ETV4 it was 0.91; with ETV1 it was 0.914.
Regarding AAGGGG, the binding signal with ERG was found to be 0.916; with ELF1 it was 0.884; with ELK4, 0.844; with ETV4, 0.94; with ERF it was 0.982.
Consider CCTGTC, for which the binding signal with ELF1 turned out to be 0.883; with ELK4 it was 0.876; with ETV4, 0.907; in the test with ETV1 it was 0.95; in the test with ERF, 0.977.
Take GGTGCT: the binding signal worked out at 0.965 in the test with ERG; 0.91 with ELF1; 0.782 with ELK4; 0.892 in the test with ETV4; 0.953 with ERF.
TGCAGG: the binding signal is 0.964 with ELF1, 0.95 with ELK4, 0.982 in the test with ETV4 and 0.962 in the test with ETV1.
Turning to GACGCA, the binding signal with ERG came out at 0.538; with ELF1 it was 0.548; in the test with ELK4 it was 0.629; with ETV4, 0.537; with ETV1, 0.527; in the test with ERF it was 0.543.
In the case of GACGAA, the binding signal with ERG is 0.855; with ELF1, 0.824; with ELK4, 0.788; with ETV4, 0.881; in the test with ETV1, 0.811.
Consider GGGCTG, for which the binding signal with ERG was determined as 0.924; with ELF1, 0.973; with ELK4, 0.979; in the test with ETV4, 0.949; in the test with ETV1, 0.99.
Take TACAGT: the binding signal in the test with ERG worked out at 0.853; in the test with ELF1, 0.876; with ELK4 it was 0.915; with ETV4 it was 0.882; with ETV1 it was 0.87; with ERF, 0.906.
With CGAGGA, the binding signal in the test with ERG was found to be 0.655; with ELF1, 0.626; with ELK4, 0.513; in the test with ETV4, 0.612; with ETV1, 0.693; with ERF, 0.639.
Take GTAGCC: the binding signal was 0.905 with ERG; 0.917 in the test with ELF1; 0.896 in the test with ELK4; 1.04 in the test with ETV4; 0.947 with ERF.
AGAGCC: the binding signal with ERG amounted to 0.674; in the test with ELF1, 0.74; with ELK4 it was 0.682; in the test with ETV4, 0.757; with ETV1, 0.751; in the test with ERF it was 0.763.
For the sequence TGGGCC, the binding signal with ERG was 0.918; with ELF1 it was 0.934; with ELK4, 0.863; with ETV4, 0.974; with ETV1, 0.899.
Consider GAACAG, for which the binding signal was found to be 0.901 with ELF1; 0.998 with ELK4; 0.902 with ETV4; 0.908 in the test with ETV1; 0.928 with ERF.
With GGCGGC, the binding signal stood at 0.597 in the test with ERG; 0.593 with ELF1; 0.561 with ELK4; 0.591 with ETV4; 0.502 with ETV1; 0.531 with ERF.
On to AAGACA, for which the binding signal with ELF1 came to 0.984; in the test with ELK4, 0.896; with ETV4, 0.953; with ETV1, 0.934.
Consider GCTGTC, for which the binding signal with ERG worked out at 0.86; in the test with ELF1, 0.976; with ELK4, 0.938; with ETV4, 0.993; with ETV1 it was 0.9.
Consider AGTAGT, for which the binding signal stood at 0.911 with ERG; 0.918 with ELF1; 0.87 with ELK4; 0.908 with ETV4; 0.913 with ETV1; 0.917 in the test with ERF.
Consider TTGGAC, for which the binding signal in the test with ERG amounted to 0.957; with ELF1 it was 0.979; with ELK4, 0.873; in the test with ETV4, 0.943; with ETV1, 0.957.
As to GCTGTG, the binding signal in the test with ERG was determined as 0.726; in the test with ELF1, 0.64; with ELK4, 0.729; with ETV4, 0.63; in the test with ETV1, 0.674; with ERF it was 0.71.
Take AGGCAT: the binding signal with ERG was found to be 0.82; with ELF1 it was 0.775; with ELK4 it was 0.926; in the test with ETV4 it was 0.817; with ETV1, 0.826; with ERF, 0.809.
AGTTCG: the binding signal with ERG was 0.714; with ELF1, 0.758; with ELK4, 0.739; with ETV4, 0.799; with ETV1 it was 0.714; in the test with ERF, 0.822.
Take GCGCTA: the binding signal came out at 0.937 with ERG; 0.962 in the test with ELF1; 0.858 with ELK4; 0.969 in the test with ETV4; 0.926 with ETV1.
Regarding ATAGAG, the binding signal with ERG turned out to be 0.849; with ELF1, 0.916; with ELK4, 0.941; with ETV4 it was 0.897; in the test with ETV1, 0.878.
With GTGCAA, the binding signal with ERG is 0.963; in the test with ELF1, 0.985; with ELK4 it was 1.05; with ETV4, 0.953; with ERF, 0.957.
